Reference: PubChem BioAssay AID1259425 (University of Nebraska Medical Center, 2018)
Assay: 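Seek colon cancer weak points whose silencing resembles KSR1 loss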 (primary screen). Cell system: HCT116 human colon cancer cells. Knock-down reagent: siRNA pool against human genes, 50 nM siRNA. Measured: 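After 50 nM siRNA pool, branched-DNA assay measures six marker transcripts per well, minus blank, normalised to the geometric mean of two housekeeping transcripts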. Scale: BNIP3L mRNA: higher = more BNIP3L transcript after knockdown; NDRG1 mRNA: higher = more NDRG1 transcript after knockdown; BNIP3 mRNA: higher = more BNIP3 transcript after knockdown; ALDOC mRNA: higher = more ALDOC transcript after knockdown; ACSL5 mRNA: higher = more ACSL5 transcript after knockdown.
The deposit covers about 14,000 reagents; this is an unselected part. Reagents against one gene are numbered here. The record does not give: the time to read-out.

target,reagent,"BNIP3L mRNA, set 1","NDRG1 mRNA, set 1","BNIP3 mRNA, set 1","ALDOC mRNA, set 1","ACSL5 mRNA, set 1"
TAF7 (TATA-box binding protein associated factor 7),1,0.138,0.197,0.0634,0.00944,0.0691
TMEM50B (transmembrane protein 50B),1,0.145,0.137,0.313,0.0523,0.288
GATD3 (glutamine amidotransferase class 1 domain containing 3),1,0.119,0.132,0.285,0.00543,0.14
ING5 (inhibitor of growth family member 5),1,0.2,0.196,0.315,0.117,0.373
NKX2-8 (NK2 homeobox 8),1,0.049,0.186,0.246,0.00917,0.164
GHR (growth hormone receptor),1,0.0488,0.0646,0.189,0.0153,0.0696
DLGAP1 (DLG associated protein 1),1,0.109,0.274,0.49,0.0294,0.327
KMO (kynurenine 3-monooxygenase),1,0.0923,0.175,0.335,0.0701,0.108
"SUPT7L (SPT7 like, STAGA complex subunit gamma)",1,0.0806,0.236,0.211,0.0274,0.17
CDK7 (cyclin dependent kinase 7),1,0.136,0.511,0.551,0.00895,0.321
MRPS33 (mitochondrial ribosomal protein S33),1,0.0466,0.201,0.232,0.0256,0.19
USP44 (ubiquitin specific peptidase 44),1,0.0649,0.105,0.264,0.0113,0.0829
MRE11 (MRE11 double strand break repair nuclease),1,0.0622,0.148,0.307,0.0233,0.137
PARD3 (par-3 family cell polarity regulator),1,-0.00842,-0.0161,0.418,0.00392,0.138
TBCCD1 (TBCC domain containing 1),1,0.115,0.665,0.251,0.0292,0.17
APOC2 (apolipoprotein C2),1,0.214,0.213,0.528,0.0689,0.254
ISL2 (ISL LIM homeobox 2),1,0.0444,0.0611,0.185,0.0067,0.0601
TMEM254 (transmembrane protein 254),1,0.119,0.33,0.296,0.101,0.178
CYBA (cytochrome b-245 alpha chain),1,0.0503,0.894,0.404,0.0132,0.47
GPR62 (G protein-coupled receptor 62),1,0.221,0.0965,0.26,0.0274,0.0581
SPATS2 (spermatogenesis associated serine rich 2),1,0.0714,0.421,0.238,0.024,0.286
TSPAN10 (tetraspanin 10),1,0.244,0.45,0.334,0.0593,0.341
ARRDC3 (arrestin domain containing 3),1,0.155,0.459,0.3,0.0266,0.349
CARD8 (caspase recruitment domain family member 8),1,0.0564,0.099,0.254,0.0267,0.0693
PLEKHF2 (pleckstrin homology and FYVE domain containing 2),1,0.132,0.153,0.297,0.0444,0.139
EDARADD (EDAR associated via death domain),1,0.0783,0.0958,0.231,0.0139,0.114
LTV1 (LTV1 ribosome biogenesis factor),1,0.0784,0.185,0.274,0.00868,0.103
PTPRZ1 (protein tyrosine phosphatase receptor type Z1),1,0.109,0.149,0.341,0.0225,0.16
SLC38A3,1,0.0932,0.382,0.387,0.00712,0.242
CARD14 (caspase recruitment domain family member 14),1,0.0775,0.534,0.351,0.00688,0.327
CD209 (CD209 molecule),1,0.0893,0.0801,0.355,0.0228,0.125
ZBTB18 (zinc finger and BTB domain containing 18),1,0.0927,0.107,0.224,0.0171,0.121
RASL11B (RAS like family 11 member B),1,0.103,0.086,0.294,0.00986,0.113
MRPL19 (mitochondrial ribosomal protein L19),1,0.12,0.162,0.393,0.112,0.108
SMARCB1 (SWI/SNF related BAF chromatin remodeling complex subunit B1),1,0.079,0.235,0.476,0.0592,0.409
DDX10 (DEAD-box helicase 10),1,0.173,0.136,0.401,0.0212,0.206
TNFRSF10A (TNF receptor superfamily member 10a),1,0.125,0.419,0.421,0.0238,0.611
DNTTIP2 (deoxynucleotidyltransferase terminal interacting protein 2),1,0.126,0.105,0.356,0.0163,0.224
RBMXL2 (RBMX like 2),1,0.135,0.12,0.277,0.0157,0.0737
PLA2G6 (phospholipase A2 group VI),1,0.198,0.145,0.361,0.0345,0.146
NAP1L3 (nucleosome assembly protein 1 like 3),1,0.121,0.17,0.2,0.022,0.314
"PSMC5 (proteasome 26S subunit, ATPase 5)",1,0.441,1.97,0.516,0.023,0.207
KRABD1 (KRAB domain containing 1),1,0.0979,0.22,0.287,0.00733,0.172
PAFAH1B1,1,0.298,0.157,0.786,0.0268,0.13
SCRT1 (scratch family transcriptional repressor 1),1,0.138,0.195,0.484,0.228,0.267
SCRT1 (scratch family transcriptional repressor 1),2,0.229,0.102,0.269,0.0773,0.347
TAS2R4 (taste 2 receptor member 4),1,0.146,0.129,0.31,0.0301,0.177
TPH1 (tryptophan hydroxylase 1),1,0.164,0.255,0.293,0.0297,0.306
CCL16 (C-C motif chemokine ligand 16),1,0.0931,0.163,0.23,0.0294,0.143
PKDREJ (polycystin family receptor for egg jelly),1,0.0956,0.102,0.287,0.0266,0.124
PCED1A (PC-esterase domain containing 1A),1,0.117,0.13,0.38,0.0255,0.164
COX4I2 (cytochrome c oxidase subunit 4I2),1,0.167,0.452,0.289,0.0337,0.191
SCHIP1 (schwannomin interacting protein 1),1,0.0682,0.232,0.216,0.0193,0.14
DCAF13 (DDB1 and CUL4 associated factor 13),1,0.0957,0.113,0.562,0.0167,0.121
PPP4R2 (protein phosphatase 4 regulatory subunit 2),1,0.106,0.105,0.207,0.0259,0.118
CDKN1A (cyclin dependent kinase inhibitor 1A),1,0.131,0.0521,0.273,0.00683,0.151
BRSK1 (BR serine/threonine kinase 1),1,0.179,0.222,0.282,0.0131,0.272
OR12D3 (olfactory receptor family 12 subfamily D member 3),1,0.129,0.286,0.335,0.0589,0.246
F9 (coagulation factor IX),1,0.065,0.0847,0.298,0.0134,0.159
TRNT1 (tRNA nucleotidyl transferase 1),1,0.103,0.322,0.261,0.0407,0.33
PIGZ,1,0.198,0.394,0.467,0.0717,0.248
SURF1 (SURF1 cytochrome c oxidase assembly factor),1,0.057,0.134,0.368,0.0213,0.0952
RPL5 (ribosomal protein L5),1,0.0948,0.228,0.178,0.0607,0.0953
